In the supplement of paper PMC8616043 one finds Z-score data, which are given here for 17 molecules.

Structures are written as SMILES. Where a name gives a salt, the structure may show the parent alone. The list shows a part of the results. Single values are uncertain here, since repeats match poorly.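 PR50, a 50-repeat proline–arginine dipeptide protein from C9ORF72 (ALS/FTD), was expressed by transfection in U-2 OS human cells stably carrying a GFP sensor with import and classical export signals. Per-well nuclear-minus-cytoplasm GFP, normalized between in-plate DMSO (low) and PR-only (high), was scored versus other test wells; compounds well below zero were hits reversing PR.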

The subject of this assay is U-2 OS NCT-C biosensor cells expressing PR50. As to the kind of experiment: Z-score of normalised NCT-C biosensor translocation index in PR50-expressing cells; higher = more nuclear biosensor (more disrupted nuclear export). As to conditions: 3 µM; 24 h.
As to `COc1ccc(/C=C/c2cc(OC)cc(=O)o2)cc1` [Yangonin], the Z-score is inactive: 0.473. For the molecule `CNc1cc(NS(=O)(=O)c2ccc(N)cc2)nc(NC)n1` [Ro 04-6790 dihydrochloride], the Z-score is inactive: 0.999. Regarding `Cc1ccc(C(=O)NCCCCCC(=O)Nc2ccccc2N)cc1`, the Z-score is active: -2.89. The result for `CCN(CC)CCn1c(=O)c(Cc2ccc(OC)cc2)nc2ccccc21` [Caroverine HCl] reads inactive: -0.404; that for `CO[C@H]1C[C@@H]2CC[C@@H](C)[C@@](O)(O2)C(=O)C(=O)N2CCCC[C@H]2C(=O)O[C@H]([C@H](C)C[C@@H]2CC[C@@H](O)[C@H](OC)C2)CC(=O)[C@H](C)/C=C(\C)[C@@H](O)[C@@H](OC)C(=O)[C@H](C)C[C@H](C)/C=C/C=C/C=C/1C` [Rapamycin], inactive: -0.623; that for `CO[C@H]1C[C@@H]2CC[C@@H](C)[C@@](O)(O2)C(=O)C(=O)N2CCCC[C@H]2C(=O)O[C@H]([C@H](C)C[C@@H]2CC[C@@H](O)[C@H](OC)C2)CC(=O)[C@H](C)/C=C(\C)[C@@H](O)[C@@H](OC)C(=O)[C@H](C)C[C@H](C)/C=C/C=C/C=C/1C` [Sirolimus (Rapamycin)], inactive: 0.947. `C#C[C@]1(O)CC[C@H]2[C@@H]3CCC4=CC(=O)CC[C@@H]4[C@H]3CC[C@@]21C` [Norethindrone]: the Z-score is inactive: 0.16. Take `COc1cc2c(CCNC(C)=O)c[nH]c2cc1O` [6-Hydroxy melatonin]: the Z-score was inactive: -0.278. For `CCCC(C)NC(=O)c1ccc(Cl)c(Cl)c1` (configuration not stated), the Z-score was inactive: 0.338. As to `O=C1NC(=O)/C(=C\c2ccc3nccnc3c2)S1`, the Z-score was inactive: -0.258. Consider `CO[C@@]1(NC(=O)C2SC(=C(C(N)=O)C(=O)O)S2)C(=O)N2C(C(=O)O)=C(CSc3nnnn3C)CS[C@@H]21` (some centres not stated) [Cefotetan Disodium], for which the Z-score was inactive: -0.258. On to `CN(C)CCCN1c2ccccc2CCc2ccc(Cl)cc21` [Clomipramine·HCl], for which the Z-score is inactive: -0.338. On to `CN(C)CCCN1c2ccccc2CCc2ccc(Cl)cc21` [Clomipramine hydrochloride], for which the Z-score was inactive: -0.649.

As to `Nc1ccc(O)c(C(=O)O)c1` [Mesalamine (5-Aminosalicylic Acid)], the Z-score was inactive: 0.918. As for `CNC(=O)[C@H]1O[C@@H](n2cnc3c(NCc4ccc(N)cc4)ncnc32)[C@H](O)[C@@H]1O`, the Z-score was inactive: 0.141. In the case of `COc1cc(N2CCN(C)CC2)ccc1Nc1nccc(-c2cn(C)c3cnccc23)n1`, the Z-score was inactive: -0.245.

Consider `COc1cc2c(cc1O)CC[C@@H]1[C@@H]2CC[C@]2(C)[C@@H](O)CC[C@@H]12` [2-methoxyestradiol], for which the Z-score was inactive: -0.664.
